System: T1, Gq/11-coupled muscarinic acetylcholine receptors (mAChR) endogenous to 293-F cells
T1 construct: gene CHRM3
Experiment: FLIPR calcium release, stable GCaMP6s
Assay type: cell-based
Settings: antagonist; acetylcholine challenge (30 nM in Figure 4 legend), 30 min pre-incubation, 2 mM Ca2+, pH 7.4
From the text: FLIPR calcium release, stable GCaMP6s on Gq/11-coupled muscarinic acetylcholine receptors (mAChR) endogenous to 293-F cells

CN1CCN(CC(=O)N2c3ccccc3C(=O)Nc3cccnc32)CC1 [pirenzepine]
GCaMP6s pEC50: 7.59 ± 0.04 -log10(M)

— article PMC6722131, “High-throughput-compatible assays using a genetically-encoded calcium indicator” (Scientific Reports, 2019)
